The exact form of at least one protein or probe is not confirmed. At least one verdict was read from the data and is not stated in words by the source.

The record followed here is PMC6555819.

In this data set the test system is PPARγ (isoform 1) + RXRα. In words: EMSA. The conditions noted are these: direct titration, 1 nM probe, no ligand, Kd not in the material; EMSA: 1x PBS, 0.2% BSA, 5 mM DTT, 10% glycerol, 0.02% Triton X-100, room temperature 1 h; competition with 2 nM IR700-P1, PPARγ:RXRα 12 nM:4 nM, competitor 0-2000 nM; recombinant protein; protein details: His (pDEST17),His tag cleaved by TEV; label: IR700.

In the case of “GCCAAACTAGGTCAAAGGTCAAAGTCGAGCCAACCA (double strand) [IR700-labeled P1 probe]”, the binding result was “binds”.
